These results are taken from PubChem BioAssay AID463116 (University of Pittsburgh Molecular Library Screening Center, 2010).

Some of the results follow. The main result of the screen is listed elsewhere. These columns were measured beside it and carry no call. Compounds called inactive in the main read-out are mostly missing here.

The nature of the experiment: blockers of dexamethasone-driven GR-EGFP nuclear import – imaging, high-content imaging, GR-EGFP cells, confirmation (AID 463116). The conditions noted are these: 3617.4 GR-EGFP nuclear translocation imaging, dexamethasone-induced; measured here: cell count per field; at 20 µM.
Turning to `CCN(CC)c1ccc(/C=N/c2sc3c(c2C#N)C2CCN3CC2)c(O)c1`, the z-score amounted to 0.324.

`O=C1NC(=O)N(c2ccccc2)C(=O)/C1=C\C=C\c1ccccc1`: the z-score was -0.0503.

`O=[N+]([O-])c1ccc(NCc2ccccc2)c2nonc12`: the z-score is 0.425.

`CC(C)n1c(O)c(C2c3cc(Cl)ccc3Oc3[nH]c(=O)n(C(C)C)c(=O)c32)c(=O)[nH]c1=O` (stereo not given): the z-score worked out at 0.293.

`CCc1ccc(N2C(=O)NC(=O)/C(=C\C=C\c3ccco3)C2=O)cc1` had a z-score of 0.455.

Turning to `COc1ccc(CN2C(=O)NC(=O)/C(=C/c3ccc([N+](=O)[O-])s3)C2=O)cc1`, the z-score is 0.247.

With `COc1cc(/C=C/[N+](=O)[O-])ccc1O`, the z-score was -0.0589.

For `O=c1[nH]sc2cc(F)ccc12`, the z-score amounted to 0.3.

As for `Cc1ccc(N2C(=O)NC(=O)/C(=C\C=C\c3ccco3)C2=O)cc1`, the z-score was 0.317.

Molecule `Cc1cccc(N2C(=O)NC(=O)/C(=C\C=C\c3ccco3)C2=O)c1` gave a z-score of 0.315.

Molecule `CCN(CC)c1ccc(C=C2C(=O)NC(=S)NC2=O)cc1` registered a z-score of 0.218.

`CNc1cc(Cl)c2nonc2c1[N+](=O)[O-]`: the z-score is -2.38.

On to `CCN1C(=O)C(=C/C=C/c2ccco2)C(=O)N(CC)C1=S`, for which the z-score is -0.252.

Turning to `COc1ccccc1N1C(=O)NC(=O)/C(=C/c2ccc([N+](=O)[O-])s2)C1=O`, the z-score was -0.00182.

Consider `O=C1NC(=O)N(Cc2ccccc2)C(=O)/C1=C\C=C\c1ccco1`, for which the z-score is 0.0327.

The molecule `COc1ccc(N2C(=O)NC(=O)/C(=C\c3ccc([N+](=O)[O-])s3)C2=O)cc1` came in with a z-score of 0.579.

`O=C1NC(=O)N(Cc2ccc(F)cc2)C(=O)/C1=C\C=C\c1ccco1` had a z-score of 0.0709.

Take `CCOc1ccc(N2C(=O)/C(=C\c3cccs3)C(=O)NC2=S)cc1`: the z-score is -0.143.

Take `O=c1cc(C(F)(F)F)c2cc3c4c(c2o1)CCCN4CCC3`: the z-score came to 0.666.

`O=C1NC(=O)N(Cc2ccco2)C(=O)/C1=C/C=C/c1ccco1` displayed a z-score of -0.331.
